# Test results taken from paper PMC7277541, “Antimicrobial and Antifungal Activities of Terpene-Derived Palladium Complexes” (Antibiotics, 2020).
# Tested on: S. aureus (MRSA) ATCC 43300
# Test: Antibacterial MIC assay, S. aureus (MRSA)
# Type: cell-based
# Settings: Staphylococcus aureus, 18 h, read-out: Minimum inhibitory concentration (MIC) S. aureus ATCC 43300
# Method: Dry compounds were dissolved in dimethyl sulfoxide (DMSO), and serially diluted 2-fold to produce an 8-point dose response with DMSO/water and then added into microtiter plates with a final DMSO concentration of 0.5%, providing a concentration range of 0.25 to 32 μg/mL. Screening against bacteria and yeasts for antimicrobial activity and toxicity against mammalian cells was performed in duplicate (n = 2).
# For the bacterial assays, each bacterial strain was cultured in Cation-Adjusted Mueller Hinton Broth (CAMHB; Bacto Laboratories 212322) at 37 °C overnight. Bacterial strains tested were methicillin resistant S. aureus (methicillin-resistant Staphylococcus aureus - MRSA) ATCC 43300, E. coli ATCC 25922, K. pneumoniae K6/ESBL ATCC 700603, P. aeruginosa ATCC 27853, A. baumannii ATCC 19606. A sample of each culture was then diluted 40-fold in fresh CAMHB and incubated at 37 °C for 1.5–3 h. The resultant mid-log phase cultures were diluted with CAMHB (CFU/mL measured by OD600), then added to each well of the compound-containing plates (384-well non-binding surface (NBS) plates; Corning CLS3640), giving a final cell density of 5 × 10^5 CFU/mL and a total volume of 50 μL. […] Inhibition of bacterial growth was determined by measuring absorbance at 600 nm (OD600), using media only as negative control and bacteria without inhibitors as positive control. […]
structure (smiles),measurement,value
"CN[C@H](CC(C)C)C(=O)N[C@H]1C(=O)N[C@@H](CC(N)=O)C(=O)N[C@H]2C(=O)N[C@H]3C(=O)N[C@H](C(=O)N[C@H](C(=O)O)c4cc(O)cc(O)c4-c4cc3ccc4O)[C@H](O)c3ccc(c(Cl)c3)Oc3cc2cc(c3O[C@@H]2O[C@H](CO)[C@@H](O)[C@H](O)[C@H]2O[C@H]2C[C@](C)(N)[C@H](O)[C@H](C)O2)Oc2ccc(cc2Cl)[C@H]1O [vancomycin, reference compound]",MIC,1 µg/mL
